In the supplement of paper PMC6411743:
± gives the standard deviation of the averaged measurements. This is a selection; strong and weak results do not stand in their true shares.

Sequences of proteins named here, by UniProt entry; tags and fusion partners are left off. A change or cut given only in a name is not applied to a line headed by its entry.
UniProt Q13510, whole entry: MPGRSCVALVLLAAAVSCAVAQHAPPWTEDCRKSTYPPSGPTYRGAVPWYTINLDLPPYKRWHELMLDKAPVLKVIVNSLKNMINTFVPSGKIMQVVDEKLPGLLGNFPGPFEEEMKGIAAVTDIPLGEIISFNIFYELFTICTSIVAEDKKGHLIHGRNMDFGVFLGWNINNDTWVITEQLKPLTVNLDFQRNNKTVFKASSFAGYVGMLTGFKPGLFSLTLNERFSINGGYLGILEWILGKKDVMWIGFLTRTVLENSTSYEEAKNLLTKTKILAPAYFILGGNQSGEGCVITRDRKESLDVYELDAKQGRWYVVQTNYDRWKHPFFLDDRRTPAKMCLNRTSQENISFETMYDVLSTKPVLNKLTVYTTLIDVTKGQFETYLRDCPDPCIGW
UniProt Q6DD88: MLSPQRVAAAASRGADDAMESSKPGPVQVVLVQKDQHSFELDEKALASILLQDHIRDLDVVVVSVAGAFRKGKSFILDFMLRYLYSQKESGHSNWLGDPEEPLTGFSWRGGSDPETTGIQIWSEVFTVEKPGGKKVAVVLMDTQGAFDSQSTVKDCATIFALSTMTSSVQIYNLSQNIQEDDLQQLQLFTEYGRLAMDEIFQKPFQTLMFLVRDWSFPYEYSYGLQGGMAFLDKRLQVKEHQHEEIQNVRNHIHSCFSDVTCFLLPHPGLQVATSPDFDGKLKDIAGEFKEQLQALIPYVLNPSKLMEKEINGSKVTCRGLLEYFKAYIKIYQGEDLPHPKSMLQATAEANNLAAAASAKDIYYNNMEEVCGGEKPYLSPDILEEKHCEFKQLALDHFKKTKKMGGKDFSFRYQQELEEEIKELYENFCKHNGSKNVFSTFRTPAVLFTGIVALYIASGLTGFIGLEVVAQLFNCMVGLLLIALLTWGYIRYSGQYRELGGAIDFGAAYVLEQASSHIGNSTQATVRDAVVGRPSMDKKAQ
UniProt Q15434: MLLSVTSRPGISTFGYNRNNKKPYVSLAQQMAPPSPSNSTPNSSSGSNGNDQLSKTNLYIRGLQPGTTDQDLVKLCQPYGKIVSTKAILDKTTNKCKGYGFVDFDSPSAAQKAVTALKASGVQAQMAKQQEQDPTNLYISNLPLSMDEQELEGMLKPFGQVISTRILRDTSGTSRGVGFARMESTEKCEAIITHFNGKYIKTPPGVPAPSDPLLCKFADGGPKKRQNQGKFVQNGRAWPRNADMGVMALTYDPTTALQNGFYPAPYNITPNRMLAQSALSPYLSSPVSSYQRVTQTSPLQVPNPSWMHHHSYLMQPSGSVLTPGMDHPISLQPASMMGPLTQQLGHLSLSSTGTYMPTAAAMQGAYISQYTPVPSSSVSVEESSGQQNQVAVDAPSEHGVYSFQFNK
UniProt P29375: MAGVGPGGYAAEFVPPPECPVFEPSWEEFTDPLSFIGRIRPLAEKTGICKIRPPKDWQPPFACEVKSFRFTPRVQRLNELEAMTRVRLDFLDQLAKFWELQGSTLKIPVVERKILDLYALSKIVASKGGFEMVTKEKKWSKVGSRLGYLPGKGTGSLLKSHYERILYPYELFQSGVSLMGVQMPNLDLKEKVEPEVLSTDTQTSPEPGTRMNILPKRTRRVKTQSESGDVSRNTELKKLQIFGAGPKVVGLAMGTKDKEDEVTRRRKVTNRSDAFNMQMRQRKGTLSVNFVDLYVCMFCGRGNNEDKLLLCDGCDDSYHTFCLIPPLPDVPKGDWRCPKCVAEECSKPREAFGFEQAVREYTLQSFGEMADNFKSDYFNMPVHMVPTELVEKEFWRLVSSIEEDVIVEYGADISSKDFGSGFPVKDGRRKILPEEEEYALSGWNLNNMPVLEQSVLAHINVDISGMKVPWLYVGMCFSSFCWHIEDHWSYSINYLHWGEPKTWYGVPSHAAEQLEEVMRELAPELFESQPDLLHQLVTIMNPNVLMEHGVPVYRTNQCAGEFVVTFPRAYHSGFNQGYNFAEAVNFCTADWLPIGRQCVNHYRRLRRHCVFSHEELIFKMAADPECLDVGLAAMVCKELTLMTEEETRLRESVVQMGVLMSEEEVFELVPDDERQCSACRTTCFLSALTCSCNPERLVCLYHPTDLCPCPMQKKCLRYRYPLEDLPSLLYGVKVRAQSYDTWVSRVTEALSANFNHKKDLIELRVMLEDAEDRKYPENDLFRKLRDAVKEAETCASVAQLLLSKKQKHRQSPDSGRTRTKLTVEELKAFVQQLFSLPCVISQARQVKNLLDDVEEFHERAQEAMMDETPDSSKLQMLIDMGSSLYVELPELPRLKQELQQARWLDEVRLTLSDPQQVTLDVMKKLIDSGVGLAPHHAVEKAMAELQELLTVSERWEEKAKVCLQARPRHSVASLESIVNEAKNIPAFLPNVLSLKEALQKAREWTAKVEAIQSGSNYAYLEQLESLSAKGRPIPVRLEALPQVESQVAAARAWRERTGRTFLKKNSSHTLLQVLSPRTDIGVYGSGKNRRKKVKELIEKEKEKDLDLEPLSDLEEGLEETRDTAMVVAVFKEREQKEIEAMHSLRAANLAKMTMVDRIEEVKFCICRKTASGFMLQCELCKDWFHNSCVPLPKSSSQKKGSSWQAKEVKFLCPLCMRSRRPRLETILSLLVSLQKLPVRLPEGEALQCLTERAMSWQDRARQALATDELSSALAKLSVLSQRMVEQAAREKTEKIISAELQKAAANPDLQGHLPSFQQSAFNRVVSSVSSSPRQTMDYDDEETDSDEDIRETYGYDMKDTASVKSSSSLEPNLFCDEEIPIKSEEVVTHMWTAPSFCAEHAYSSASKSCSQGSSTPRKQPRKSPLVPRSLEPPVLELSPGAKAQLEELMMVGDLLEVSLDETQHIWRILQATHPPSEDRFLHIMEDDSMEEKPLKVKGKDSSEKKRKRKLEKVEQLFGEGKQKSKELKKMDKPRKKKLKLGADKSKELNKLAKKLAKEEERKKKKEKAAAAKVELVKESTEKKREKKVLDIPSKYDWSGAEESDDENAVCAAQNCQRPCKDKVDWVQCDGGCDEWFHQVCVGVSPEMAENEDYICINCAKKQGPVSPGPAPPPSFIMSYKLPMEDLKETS
UniProt O15182: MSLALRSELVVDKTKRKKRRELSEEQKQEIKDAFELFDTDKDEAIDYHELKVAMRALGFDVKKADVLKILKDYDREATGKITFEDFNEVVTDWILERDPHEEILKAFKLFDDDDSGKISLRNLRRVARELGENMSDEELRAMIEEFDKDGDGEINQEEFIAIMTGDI
UniProt P32780: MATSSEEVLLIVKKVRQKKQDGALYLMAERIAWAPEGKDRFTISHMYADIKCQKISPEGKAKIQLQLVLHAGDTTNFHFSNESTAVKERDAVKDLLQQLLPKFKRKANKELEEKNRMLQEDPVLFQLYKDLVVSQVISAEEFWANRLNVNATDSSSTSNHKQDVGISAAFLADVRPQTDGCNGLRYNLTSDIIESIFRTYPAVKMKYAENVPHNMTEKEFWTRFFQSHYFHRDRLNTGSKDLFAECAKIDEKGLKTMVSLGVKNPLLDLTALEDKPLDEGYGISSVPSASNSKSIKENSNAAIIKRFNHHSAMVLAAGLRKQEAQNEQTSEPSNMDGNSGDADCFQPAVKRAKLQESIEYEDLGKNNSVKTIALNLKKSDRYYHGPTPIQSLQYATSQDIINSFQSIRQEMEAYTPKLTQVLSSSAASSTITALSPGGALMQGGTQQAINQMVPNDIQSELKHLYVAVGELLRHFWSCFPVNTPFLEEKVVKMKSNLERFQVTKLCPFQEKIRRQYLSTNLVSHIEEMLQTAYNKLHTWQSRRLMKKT
UniProt Q15436: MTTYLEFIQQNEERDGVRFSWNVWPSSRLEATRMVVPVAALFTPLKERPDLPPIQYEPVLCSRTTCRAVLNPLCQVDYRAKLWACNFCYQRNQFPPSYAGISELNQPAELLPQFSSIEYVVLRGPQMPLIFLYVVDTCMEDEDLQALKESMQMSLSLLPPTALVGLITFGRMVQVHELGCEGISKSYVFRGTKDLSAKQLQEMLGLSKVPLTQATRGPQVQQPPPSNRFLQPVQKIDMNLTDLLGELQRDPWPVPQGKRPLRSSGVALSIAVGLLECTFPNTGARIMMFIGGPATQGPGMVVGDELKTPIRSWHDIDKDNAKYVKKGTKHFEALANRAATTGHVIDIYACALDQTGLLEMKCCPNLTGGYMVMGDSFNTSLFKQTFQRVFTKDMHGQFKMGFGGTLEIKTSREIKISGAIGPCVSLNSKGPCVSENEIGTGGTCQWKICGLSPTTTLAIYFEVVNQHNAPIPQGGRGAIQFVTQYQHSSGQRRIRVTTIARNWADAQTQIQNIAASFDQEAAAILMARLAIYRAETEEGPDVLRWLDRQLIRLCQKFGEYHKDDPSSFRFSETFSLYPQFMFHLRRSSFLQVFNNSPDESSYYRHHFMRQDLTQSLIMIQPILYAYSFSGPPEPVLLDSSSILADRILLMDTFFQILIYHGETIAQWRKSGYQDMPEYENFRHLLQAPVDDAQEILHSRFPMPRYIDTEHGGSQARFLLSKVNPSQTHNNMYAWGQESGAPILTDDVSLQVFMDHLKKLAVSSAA
UniProt A2RUS2: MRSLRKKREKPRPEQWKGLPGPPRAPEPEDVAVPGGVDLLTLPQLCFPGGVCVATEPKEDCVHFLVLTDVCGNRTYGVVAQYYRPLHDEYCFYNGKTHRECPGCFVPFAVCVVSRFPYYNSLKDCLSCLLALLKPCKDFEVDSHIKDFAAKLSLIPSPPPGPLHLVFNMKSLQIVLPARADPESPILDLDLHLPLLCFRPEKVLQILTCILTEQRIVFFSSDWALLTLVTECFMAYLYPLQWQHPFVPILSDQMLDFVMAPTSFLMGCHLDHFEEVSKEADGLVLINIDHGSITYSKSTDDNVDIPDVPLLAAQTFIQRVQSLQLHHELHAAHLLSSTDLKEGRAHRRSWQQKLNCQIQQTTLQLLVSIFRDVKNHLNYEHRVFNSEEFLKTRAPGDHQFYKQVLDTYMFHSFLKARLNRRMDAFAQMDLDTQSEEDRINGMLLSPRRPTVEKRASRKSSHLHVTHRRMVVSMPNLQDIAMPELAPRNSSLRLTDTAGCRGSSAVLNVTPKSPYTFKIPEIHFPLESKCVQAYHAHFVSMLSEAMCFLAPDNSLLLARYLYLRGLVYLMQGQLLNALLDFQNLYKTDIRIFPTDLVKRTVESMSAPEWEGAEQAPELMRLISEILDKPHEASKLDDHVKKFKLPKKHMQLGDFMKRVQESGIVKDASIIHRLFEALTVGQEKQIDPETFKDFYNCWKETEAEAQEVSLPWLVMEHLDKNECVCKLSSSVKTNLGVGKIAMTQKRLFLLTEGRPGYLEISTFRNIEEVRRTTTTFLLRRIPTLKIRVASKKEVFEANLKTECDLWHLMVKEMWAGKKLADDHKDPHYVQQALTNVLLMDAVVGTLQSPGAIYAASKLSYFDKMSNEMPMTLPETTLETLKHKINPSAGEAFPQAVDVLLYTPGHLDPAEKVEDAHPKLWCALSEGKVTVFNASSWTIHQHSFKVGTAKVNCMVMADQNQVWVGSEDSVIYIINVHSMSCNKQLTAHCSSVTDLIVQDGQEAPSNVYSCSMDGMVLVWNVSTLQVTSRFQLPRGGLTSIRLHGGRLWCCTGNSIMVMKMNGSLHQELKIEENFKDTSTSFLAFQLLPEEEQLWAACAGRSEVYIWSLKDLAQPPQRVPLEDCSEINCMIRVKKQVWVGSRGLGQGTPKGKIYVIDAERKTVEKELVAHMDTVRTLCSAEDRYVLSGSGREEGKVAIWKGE
UniProt P57764: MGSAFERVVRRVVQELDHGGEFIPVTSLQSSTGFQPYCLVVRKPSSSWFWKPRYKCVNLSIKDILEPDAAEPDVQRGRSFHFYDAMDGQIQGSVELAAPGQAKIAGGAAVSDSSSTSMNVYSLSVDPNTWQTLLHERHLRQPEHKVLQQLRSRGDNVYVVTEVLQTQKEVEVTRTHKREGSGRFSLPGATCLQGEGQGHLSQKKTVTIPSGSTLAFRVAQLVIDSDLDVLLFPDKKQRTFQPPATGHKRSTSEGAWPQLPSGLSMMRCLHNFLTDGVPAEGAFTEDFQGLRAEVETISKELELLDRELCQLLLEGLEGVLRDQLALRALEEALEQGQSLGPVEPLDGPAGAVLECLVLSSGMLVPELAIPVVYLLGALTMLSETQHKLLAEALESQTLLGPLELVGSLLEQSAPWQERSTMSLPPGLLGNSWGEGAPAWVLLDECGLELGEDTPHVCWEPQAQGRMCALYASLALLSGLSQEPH
UniProt Q9HBH0: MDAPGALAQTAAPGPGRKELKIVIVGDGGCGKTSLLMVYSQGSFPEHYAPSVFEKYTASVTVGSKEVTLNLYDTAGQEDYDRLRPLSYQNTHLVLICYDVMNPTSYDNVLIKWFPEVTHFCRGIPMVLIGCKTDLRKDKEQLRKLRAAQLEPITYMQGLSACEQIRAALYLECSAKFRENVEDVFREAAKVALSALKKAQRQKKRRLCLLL
UniProt Q9H0R8, whole entry, looked up: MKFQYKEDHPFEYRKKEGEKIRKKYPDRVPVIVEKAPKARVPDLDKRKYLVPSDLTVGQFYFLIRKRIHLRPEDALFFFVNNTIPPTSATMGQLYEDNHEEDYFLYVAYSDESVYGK

Compound: Nc1ncnc2c1ncn2[C@@H]1O[C@H](COP(=O)(O)OP(=O)(O)NP(=O)(O)O)[C@@H](O)[C@H]1O [adenylyl imidodiphosphate]
Assay: NP40-soluble protein abundance relative to vehicle (solubility fold change) (ratio); higher = more soluble protein in presence of AMP-PNP
Procedure, shortened: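 Jurkat crude lysate prepared with a Dounce homogeniser was treated at eight concentrations spanning 0.1 to 10 mM, 10 min at room temperature then 3 min at 37 °C. Solubilisation with 0.8% NP40 and benzonase and ultracentrifugation preceded TMT labelling of the supernatant for LC-MS/MS. Fold change against the detergent-processed vehicle was determined per replicate from vsn-normalised intensities, across three independent experiments.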

Target	NP40-soluble protein abundance (concentration: 1mM)	NP40-soluble protein abundance (concentration: 2mM)	NP40-soluble protein abundance (concentration: 4mM)	NP40-soluble protein abundance (concentration: 6mM)	NP40-soluble protein abundance (concentration: 8mM)	NP40-soluble protein abundance (concentration: 10mM)
E7EU96 and related entries (UniProt P68400)	0.996 ± 0.042	0.875 ± 0.13	0.9825 ± 0.0096	0.948 ± 0.025	1.04 ± 0.026	0.971 ± 0.037
E9PBS1 and related entries (UniProt P22234)	0.991 ± 0.025	0.943 ± 0.018	0.961 ± 0.033	0.981 ± 0.022	0.994 ± 0.011	0.949 ± 0.022
E7ETU7 and related entries (UniProt P09001)	0.971 ± 0.12	0.961 ± 0.12	0.961 ± 0.14	0.927 ± 0.24	0.938 ± 0.2	0.903 ± 0.21
F8WCF9 and related entries (UniProt Q8N465)	0.983 ± 0.03	1.01 ± 0.012	0.992 ± 0.01	1.04 ± 0.035	1.02 ± 0.032	1.03 ± 0.02
F5GWT4 and related entries (UniProt Q9H4A3)	1.04 ± 0.044	1.07 ± 0.03	1.04 ± 0.027	1.03 ± 0.044	1.02 ± 0.039	1.07 ± 0.056
E7EMM4 and related entries (UniProt Q13510)	0.9804 ± 0.0097	1.01 ± 0.021	0.988 ± 0.035	1.01 ± 0.029	0.996 ± 0.033	0.999 ± 0.022
G3V167 and related entries (UniProt Q9UGN5)	1.01 ± 0.042	1.02 ± 0.03	1.01 ± 0.046	1.04 ± 0.046	1.02 ± 0.056	1.09 ± 0.065
E7EQ52 and related entries (UniProt O95271)	0.956 ± 0.029	0.928 ± 0.08	0.945 ± 0.053	0.881 ± 0.026	0.8608 ± 0.0012	0.875 ± 0.018
E7ETA6 and related entries (UniProt Q15154)	1.03 ± 0.056	1.08 ± 0.035	1.03 ± 0.035	1 ± 0.062	0.963 ± 0.046	1.02 ± 0.049
E7EPN6 and related entries (UniProt P55347)	1.01 ± 0.03	1 ± 0.072	1.03 ± 0.039	1.06 ± 0.071	1.08 ± 0.035	1.07 ± 0.06
F5H6I7 and related entries (UniProt Q6DD88)	1.023 ± 0.008	0.981 ± 0.059	0.9673 ± 0.0048	0.989 ± 0.012	0.9754 ± 0.0077	0.967 ± 0.048
E9PPN1 and related entries (UniProt Q8WW01)	0.997 ± 0.013	0.978 ± 0.049	0.974 ± 0.037	0.996 ± 0.021	0.991 ± 0.043	0.99 ± 0.039
F8W950 and related entries (UniProt Q13155)	0.987 ± 0.098	0.978 ± 0.098	0.976 ± 0.13	0.943 ± 0.15	0.924 ± 0.14	0.931 ± 0.16
F8W1T6 and related entries (UniProt Q15434)	1.01 ± 0.014	1.01 ± 0.037	1 ± 0.026	1.001 ± 0.0072	0.967 ± 0.018	0.992 ± 0.011
E9PRF4 and related entries (UniProt Q15047)	0.953 ± 0.017	0.981 ± 0.057	0.95 ± 0.013	0.954 ± 0.015	0.927 ± 0.011	0.942 ± 0.017
F5H858 and related entries (UniProt O75167)	0.9878 ± 0.0095	1.05 ± 0.077	1.04 ± 0.023	0.9989 ± 0.0088	1.03 ± 0.032	1.002 ± 0.0015
E9PRY8 and related entries (UniProt P29692)	0.983 ± 0.027	1.02 ± 0.017	0.961 ± 0.014	0.934 ± 0.059	0.932 ± 0.024	0.896 ± 0.041
F5H1F7 and related entries (UniProt P29375)	1.01 ± 0.011	1 ± 0.017	1.03 ± 0.023	1.04 ± 0.023	1.06 ± 0.042	1.08 ± 0.05
F8VXG7 and related entries (UniProt Q99590)	1.08 ± 0.033	1.18 ± 0.12	1.15 ± 0.072	1.22 ± 0.067	1.23 ± 0.094	1.31 ± 0.099
F5GX09 and related entries (UniProt Q5HYJ3)	1 ± 0.024	1.04 ± 0.057	0.995 ± 0.034	0.986 ± 0.025	0.965 ± 0.013	1.01 ± 0.025
E9PLL1 and related entries (UniProt O76062)	0.95 ± 0.07	0.962 ± 0.018	0.9511 ± 0.0069	0.954 ± 0.013	0.9649 ± 0.0067	0.909 ± 0.015
E5RJF8 and related entries (UniProt O15182)	1.02 ± 0.019	1.02 ± 0.024	0.998 ± 0.011	0.9911 ± 0.0075	0.992 ± 0.015	1.01 ± 0.022
E9PGT3 and related entries (UniProt Q15418)	1.012 ± 0.0059	0.947 ± 0.11	0.997 ± 0.043	0.958 ± 0.03	0.979 ± 0.015	0.939 ± 0.026

Target	NP40-soluble protein abundance (concentration: 1mM)	NP40-soluble protein abundance (concentration: 2mM)	NP40-soluble protein abundance (concentration: 4mM)	NP40-soluble protein abundance (concentration: 6mM)	NP40-soluble protein abundance (concentration: 8mM)	NP40-soluble protein abundance (concentration: 10mM)
E9PSD3 and related entries (UniProt O43427)	0.926 ± 0.026	0.862 ± 0.067	0.91 ± 0.015	0.922 ± 0.04	0.933 ± 0.011	0.904 ± 0.038
E9PGC5 and related entries (UniProt Q15262)	1.02 ± 0.011	1.04 ± 0.053	1.02 ± 0.028	1.01 ± 0.015	0.997 ± 0.011	1.01 ± 0.019
E9PM51 and related entries (UniProt P32780)	1.01 ± 0.021	1.04 ± 0.037	1.044 ± 0.0094	1.06 ± 0.012	1.05 ± 0.053	1.03 ± 0.06
E9PL57 and related entries (UniProt Q15843)	0.955 ± 0.05	0.989 ± 0.007	0.881 ± 0.11	0.8854 ± 0.0082	0.885 ± 0.0097	0.812 ± 0.031
E7ET07 and related entries (UniProt Q9NXR8)	1.023 ± 0.0073	1.02 ± 0.013	0.995 ± 0.021	1.01 ± 0.0076	1.03 ± 0.029	1.008 ± 0.0054
F2Z388 and related entries (UniProt P42766)	1 ± 0.029	1.1 ± 0.11	0.975 ± 0.036	0.969 ± 0.028	0.81 ± 0.14	1.03 ± 0.099
F6S7C4 and related entries (UniProt Q8NEM7)	1.003 ± 0.0042	1.015 ± 0.007	0.995 ± 0.0081	1.015 ± 0.0086	1.031 ± 0.0024	1.03 ± 0.023
E9PK67 and related entries (UniProt Q53GL7)	0.991 ± 0.027	0.981 ± 0.025	1.03 ± 0.033	0.989 ± 0.012	0.959 ± 0.027	0.975 ± 0.027
F5H365 and related entries (UniProt Q15436)	0.991 ± 0.025	0.955 ± 0.061	0.989 ± 0.02	0.974 ± 0.021	0.987 ± 0.053	0.948 ± 0.027
E7EW05 and related entries (UniProt Q9NVU7)	0.965 ± 0.048	1.06 ± 0.14	1.03 ± 0.054	1.08 ± 0.066	1.08 ± 0.052	1.11 ± 0.056
F5H5P4 and related entries (UniProt P15498)	0.969 ± 0.029	0.902 ± 0.081	0.973 ± 0.017	0.964 ± 0.03	0.984 ± 0.017	0.923 ± 0.048
F8WB06 and related entries (UniProt Q99700)	1.02 ± 0.021	1.12 ± 0.055	1.1 ± 0.028	1.13 ± 0.051	1.05 ± 0.073	1.16 ± 0.036
E9PF32 and related entries (UniProt A2RUS2)	0.955 ± 0.057	0.946 ± 0.02	0.949 ± 0.042	0.929 ± 0.048	0.944 ± 0.034	0.903 ± 0.047
E9PFK9 and related entries (UniProt Q9UJ41)	1.01 ± 0.017	1.08 ± 0.069	1.04 ± 0.035	1.06 ± 0.059	1.05 ± 0.077	1.07 ± 0.069
E7EQ69 (UniProt Q9GZZ1)	0.992 ± 0.036	1 ± 0.053	1.03 ± 0.0084	1.12 ± 0.09	1.1 ± 0.052	1.11 ± 0.063
E9PHY5 and related entries (UniProt O43491)	1.016 ± 0.0069	1.04 ± 0.046	1 ± 0.014	0.9862 ± 0.0021	0.9612 ± 0.0065	0.989 ± 0.027
E9PQR9 and related entries (UniProt P57764)	0.975 ± 0.031	0.924 ± 0.059	0.971 ± 0.047	0.933 ± 0.059	0.942 ± 0.022	0.897 ± 0.07
F5GXB1 and related entries (UniProt Q9HBH0)	1.01 ± 0.037	0.964 ± 0.031	1.01 ± 0.024	1.03 ± 0.048	1.05 ± 0.024	1.04 ± 0.016
G3V1P3 and related entries (UniProt Q969J3+G3V1P3)	0.942 ± 0.042	0.988 ± 0.058	0.965 ± 0.027	0.974 ± 0.055	0.997 ± 0.028	0.982 ± 0.038
E9PPW7 and related entries (UniProt O00217)	0.985 ± 0.012	0.9883 ± 0.0019	0.9592 ± 0.0053	0.943 ± 0.07	0.93 ± 0.044	0.927 ± 0.056
F5GZY7 and related entries (UniProt Q9H0R8)	0.98 ± 0.018	0.931 ± 0.083	0.972 ± 0.064	0.991 ± 0.043	0.984 ± 0.053	0.947 ± 0.041
E9PMC9 and related entries (UniProt Q7Z589)	1.03 ± 0.027	1.03 ± 0.021	1.05 ± 0.022	1.027 ± 0.0091	1.05 ± 0.022	1.11 ± 0.046
E7EMB1 and related entries (UniProt Q9UH65)	1.025 ± 0.0068	1.07 ± 0.072	1.01 ± 0.018	1.01 ± 0.017	0.965 ± 0.027	1 ± 0.064
